PubChem BioAssay AID1259282 | Sanger Institute | 2017

Purpose: 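Kinases whose loss reduces viability on their own or with anchor drugs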 (primary screen)
Cell system: DIFI human colorectal cancer cell line
Knock-down reagent: siRNA pool against human genes
Challenge: anchor drug at a mild dose (BYL719 1 µM, cetuximab 5 µg/ml, trametinib 10 nM) or DMSO vehicle; exposure time not given
Read-out: 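Viability relative to non-targeting pool wells, replicate mean, in DMSO or low-dose BYL719, cetuximab or trametinib; robust z-score without drug; synergy score per drug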
Scale: robust z-score, knock-down alone: higher = more viable cells than typical knock-down; viability, knock-down alone: higher = more viable cells
Units: viability, knock-down alone in fraction of control
Call rule: 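Essential when the robust z-score of the knock-down without drug falls below -3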
Meaning of the calls: active = essential (knock-down alone, z below -3); inactive = not essential
In all, the deposit lists 794 reagents; below is a part drawn at random. Of all reagents, 11 (1.4%) were called active. 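Calls flag knock-downs that lower viability without drug; drug synergy appears only in the synergy scores; exposure time not stated.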 Viability is capped at 1. Not all columns of the deposit are shown. Reagent sequences are not shown. Not stated in the record: the amount of reagent, the time to read-out.

CDK6 (cyclin dependent kinase 6) scored robust z-score, knock-down alone 0.715; viability, knock-down alone 1; inactive.
With knock-down of TWF1 (twinfilin actin binding protein 1), the screen gave robust z-score, knock-down alone 0.715; viability, knock-down alone 1; inactive.
IP6K1 (inositol hexakisphosphate kinase 1) scored robust z-score, knock-down alone 0.715; viability, knock-down alone 1; inactive.
After knock-down of TTK (TTK protein kinase), the record shows robust z-score, knock-down alone 0.0423; viability, knock-down alone 0.902; inactive.
RPS6KB2 (ribosomal protein S6 kinase B2) gave robust z-score, knock-down alone 0.715; viability, knock-down alone 1; inactive.
With knock-down of PRKACB (protein kinase cAMP-activated catalytic subunit beta), the screen gave robust z-score, knock-down alone 0.715; viability, knock-down alone 1; inactive.
Knock-down of NLK (nemo like kinase) gave: robust z-score, knock-down alone 0.473; viability, knock-down alone 0.965; inactive.
Depletion of ADGRL2 (adhesion G protein-coupled receptor L2) resulted in: robust z-score, knock-down alone 0.715; viability, knock-down alone 1; inactive.
For IP6K2 (inositol hexakisphosphate kinase 2) the deposit lists robust z-score, knock-down alone -0.287; viability, knock-down alone 0.855; inactive.
With knock-down of DGKB (diacylglycerol kinase beta), the record shows robust z-score, knock-down alone -0.745; viability, knock-down alone 0.788; inactive.
Against IDH2 (isocitrate dehydrogenase (NADP(+)) 2), the entry reads robust z-score, knock-down alone 0.715; viability, knock-down alone 1; inactive.
STK26 (serine/threonine kinase 26) gave robust z-score, knock-down alone -1.51; viability, knock-down alone 0.676; inactive.
For XYLB (xylulokinase) the deposit lists robust z-score, knock-down alone 0.715; viability, knock-down alone 1; inactive.
PKN2 (protein kinase N2) showed robust z-score, knock-down alone 0.715; viability, knock-down alone 1; inactive.
CDADC1 (cytidine and dCMP deaminase domain containing 1) showed robust z-score, knock-down alone 0.413; viability, knock-down alone 0.956; inactive.
CIT (citron rho-interacting serine/threonine kinase) showed robust z-score, knock-down alone -3.86; viability, knock-down alone 0.336; active.
Against SGK1 (serum/glucocorticoid regulated kinase 1) the deposit lists robust z-score, knock-down alone 0.715; viability, knock-down alone 1; inactive.
DCLK2 (doublecortin like kinase 2) scored robust z-score, knock-down alone 0.715; viability, knock-down alone 1; inactive.
For GUCY2C (guanylate cyclase 2C) the deposit lists robust z-score, knock-down alone 0.715; viability, knock-down alone 1; inactive.
Against CEP290 (centrosomal protein 290), the values are robust z-score, knock-down alone 0.715; viability, knock-down alone 1; inactive.
Against BRWD1 (bromodomain and WD repeat domain containing 1), the values are robust z-score, knock-down alone 0.116; viability, knock-down alone 0.913; inactive.
With knock-down of CUL1 (cullin 1), the record shows robust z-score, knock-down alone 0.715; viability, knock-down alone 1; inactive.
After knock-down of LATS2 (large tumor suppressor kinase 2), the screen gave robust z-score, knock-down alone 0.715; viability, knock-down alone 1; inactive.
For PASK (PAS domain containing serine/threonine kinase) the deposit lists robust z-score, knock-down alone 0.128; viability, knock-down alone 0.915; inactive.
CSNK1D (casein kinase 1 delta) scored robust z-score, knock-down alone 0.476; viability, knock-down alone 0.965; inactive.
After knock-down of PAK5 (p21 (RAC1) activated kinase 5) the results were robust z-score, knock-down alone -1.23; viability, knock-down alone 0.718; inactive.
MAP3K19 (mitogen-activated protein kinase kinase kinase 19) showed robust z-score, knock-down alone -0.336; viability, knock-down alone 0.847; inactive.
After knock-down of ABL1 (ABL proto-oncogene 1, non-receptor tyrosine kinase), the record shows robust z-score, knock-down alone 0.226; viability, knock-down alone 0.929; inactive.

Ordered by “viability, knock-down alone” (high to low): some entries from above.
TWF1 (twinfilin actin binding protein 1): robust z-score, knock-down alone = 0.715; viability, knock-down alone = 1; activity call = inactive
IP6K1 (inositol hexakisphosphate kinase 1): robust z-score, knock-down alone = 0.715; viability, knock-down alone = 1; activity call = inactive
RPS6KB2 (ribosomal protein S6 kinase B2): robust z-score, knock-down alone = 0.715; viability, knock-down alone = 1; activity call = inactive
TTK (TTK protein kinase): robust z-score, knock-down alone = 0.0423; viability, knock-down alone = 0.902; activity call = inactive
